# PubChem BioAssay AID590 (National Center for Advancing Translational Sciences (NCATS), 2007)
# Among all 59,000 compounds or so, about 6,500 (11%) were called active. This list was built around the results that the source calls inconclusive (neither active nor inactive); the mix of calls is not that of the screen. No stated cut-off is given here; in the data, active means max dye-equivalent concentration above about 10 nM; inconclusive means mostly about 1.1 nM to 9.6 nM; inactive means weaker than that.
# Experiment: qHTS Assay for Spectroscopic Profiling in A350 Spectral Region
# Conditions: Compound autofluorescence, 340/450 nm, Alexa 350 dye-equivalents; hits give high values
row,Compound,max dye-equivalent concentration
1,CC(C)(C)n1ncc2c(=O)n(CC(=O)c3ccccc3)cnc21,inconclusive: 8 nM
2,CCN(CC(=O)NCc1ccc(F)cc1)Cc1nc2ccccc2c(=O)[nH]1,inconclusive: 2.3 nM
3,O=C(c1ccccc1)N1CCN(C(=O)c2ccccc2Br)CC1,inactive
4,COc1ccc(N2CCN(Cc3nc(N)nc(Nc4ccc(C)c(Cl)c4)n3)CC2)cc1,inactive
5,O=c1oc2ccccc2n1CCCCCn1c(=O)oc2ccccc21,inconclusive: 2.4 nM
6,CCc1nc2oc3ccccc3c(=O)c2c(=O)n1Cc1ccccc1,inconclusive: 5 nM
7,Clc1ccc(C2CC(c3ccco3)n3ncnc3N2)cc1Cl (stereo unspecified),inconclusive: 4.2 nM
8,Cc1c(OCc2nn[nH]n2)ccc2c3c(c(=O)oc12)CCCC3,active: 19 nM
9,Cc1cc(Nc2nc3ccccc3[nH]c2=O)n(-c2ccccc2)n1,active: 43 nM
10,COc1ccc(C2C(C(C)=O)=C(O)C(=O)N2c2cccnc2)c(OC)c1 (stereo unspecified),inconclusive: 1.4 nM
11,Cc1cc(C)n(C(=O)CNc2cccc(Cl)c2C)n1,inconclusive: 6.4 nM
12,CN(c1ccc(C(=O)N2CCN(c3ccc(F)cc3)CC2)cc1)S(C)(=O)=O,inconclusive: 1.1 nM
13,CN(CC(O)COCc1cccs1)C1CCCCC1 (stereo unspecified),active: 28 nM
14,CC1(c2ccc(Cl)cc2)NC(=O)N(CC(=O)N2CCCC2)C1=O (stereo unspecified),inactive
15,N#Cc1nc(-c2ccc(OCc3ccccc3)cc2)oc1NCCCN1CCOCC1,inconclusive: 2.2 nM
16,Cn1c(=O)c2c(nc(NCCCN3CCOCC3)n2Cc2ccc(Cl)cc2)n(C)c1=O,inconclusive: 3.3 nM
17,Cc1nc(NCc2ccc3c(c2)OCO3)c2nnn(Cc3ccccc3)c2n1,inactive
18,CCN(CCCNC(=O)C1CCC(=O)N1Cc1ccc(C)cc1)c1cccc(C)c1 (stereo unspecified),inactive
19,CC1(C)Cc2c(sc3c2c(=N)n(Cc2ccco2)c(=O)n3CC(=O)Nc2ccccc2)CO1,active: 14 nM
20,COCCn1c(SCc2c(F)cccc2Cl)nc2c1c(=O)[nH]c(=O)n2C,active: 16 nM
21,O=C(NCc1ccco1)c1ccc2c(=O)n(CCC3=CCCCC3)c(=O)[nH]c2c1,inactive
22,Cn1c(=O)c2[nH]c(CCCc3ccc([N+](=O)[O-])cc3)nc2n(C)c1=O,inconclusive: 6.7 nM
23,CN(C(=O)C1CCCO1)c1nnc(-c2ccccn2)s1 (stereo unspecified),inconclusive: 2.5 nM

# Ordered by molecular weight (high to low): part of the list above.
row,Compound,max dye-equivalent concentration
17,Cc1nc(NCc2ccc3c(c2)OCO3)c2nnn(Cc3ccccc3)c2n1,inactive
22,Cn1c(=O)c2[nH]c(CCCc3ccc([N+](=O)[O-])cc3)nc2n(C)c1=O,inconclusive: 6.7 nM
23,CN(C(=O)C1CCCO1)c1nnc(-c2ccccn2)s1 (stereo unspecified),inconclusive: 2.5 nM

# More compounds:

row,Compound,max dye-equivalent concentration
1,COc1ccccc1-n1cnnc1SC1CCOC1=O (stereo unspecified),inconclusive: 2.5 nM
2,Cc1ccnc(NC(=O)C2CCN(S(=O)(=O)c3cccc4nsnc34)CC2)c1,inconclusive: 9 nM
3,O=C(CSc1nnc(-c2cccnc2)n1Cc1ccco1)c1ccc2ccccc2c1,inconclusive: 7.3 nM
4,COc1ccc2[nH]cc(CCNc3ccnc(-c4cccc(NS(C)(=O)=O)c4)n3)c2c1,inconclusive: 3.8 nM
5,CCCC1CCC(c2nc(-c3cccnc3)no2)CC1 (stereo unspecified),inactive
6,COc1ccccc1N1CCN(S(=O)(=O)Cc2ccccc2Cl)CC1,inconclusive: 1.3 nM
7,O=S(=O)(c1ccccc1)N1CCC2(CC1)CN(c1ccccc1)C2,inactive
8,CC1CCCC(C(=O)O)N1C(=O)CCSC(=O)c1ccccc1 (stereo unspecified),active: 30 nM
9,COc1ccc(-c2cn3c(C)c(C(=O)Nc4cccc(C)n4)sc3n2)cc1,inconclusive: 4.1 nM
10,COc1ccc2[nH]cc(CCNc3cc(-c4ccoc4)ncn3)c2c1,inactive
11,CCN1C(=O)/C(=C2\SC(N3CCCCC3)=NC2=O)c2ccccc21,active: 17 nM
12,CCOC(=O)CCNC(=O)Nc1ccc2nc(C)n(Cc3ccc(Cl)cc3)c(=O)c2c1,inconclusive: 1.6 nM
13,COc1c2c(c3c(c1CCC(=O)O)OC(C)(C)C=C3)OC(C)(C)C=C2,inactive
14,CC(=O)Nc1ccc(S(=O)(=O)N2CCC(NC(=O)c3ccco3)CC2)cc1,inactive
15,CCN(CC)CCCn1c(C)cc2c(c1=O)C(c1cccc(Cl)c1)C(C#N)=C(N)O2 (stereo unspecified),inactive
16,CCOc1ccc(S(=O)(=O)N(CC(N)=O)c2ccc(C)cc2)cc1,inconclusive: 3.2 nM
17,Cc1occc1-c1nnc(SCC(=O)N2CCCc3ccccc32)n1Cc1ccco1,inactive
18,Cc1cc(C)cc(NC(=O)CSc2nnc(-c3ccccc3)n2N)c1,inconclusive: 1.2 nM
19,COc1ccc(Br)cc1CNC(=O)CCN1C(=O)COc2ccccc21,inconclusive: 1.9 nM
20,Oc1ccccc1C1=Nc2nc3ccccc3n2C(c2ccccc2)C1 (stereo unspecified),inconclusive: 2.2 nM
21,O=C(NCCc1ccccc1)C1CCCN(C(=O)NC2CCCCC2)C1 (stereo unspecified),inconclusive: 5.1 nM
22,Cc1c(C(=O)O)sc(=S)n1-c1ccccc1,inconclusive: 2.1 nM
23,CC12C=CC3(CN(Cc4ccccc4)C(=O)C3C1C(=O)NCc1ccco1)O2 (stereo unspecified),inactive

row,Compound,max dye-equivalent concentration
1,Cn1cccc1C(=O)N1CCC2(CC1)CCN(c1ccccc1)CC2,inactive
2,COCC(=O)N1CCC2(CC1)CCN(c1ccccn1)CC2,inactive
3,COc1ccc(OC)c(C2=NOC(C(=O)NCC3CCCO3)C2)c1 (stereo unspecified),inconclusive: 1.6 nM
4,COc1ccccc1CN1CC2(CCN(C(=O)c3cnccn3)CC2)C1,inactive
5,N=c1c(C(=O)NCc2ccco2)cc2c(=O)n3ccccc3nc2n1Cc1ccc(Cl)cc1,active: 60 nM
6,CN1CC(=O)N(CC(=O)Nc2ccc(Cl)c(C(F)(F)F)c2)C1=O,inconclusive: 1.2 nM
7,CCC(CC)C(=O)NCCc1cc2ccc(OC)cc2[nH]c1=O,inconclusive: 1.9 nM
8,Cc1cc(C)c(C(N)=O)c(Nc2ccc3c(c2)OCCO3)n1,inconclusive: 1.1 nM
9,CCOC(=O)C1=C(Cn2cnc3ccccc32)NC(=O)NC1c1cc(C)ccc1C (stereo unspecified),inconclusive: 2.4 nM
10,Cc1ccsc1C1NC(=O)c2ccccc2N1 (stereo unspecified),active: 1200 nM
11,NC(=O)c1nn(-c2ccccc2)nc1NC(=O)CN1CCCCC1,inactive
12,O=S(=O)(c1cccc(-c2cn3cccnc3n2)c1)N1CCOCC1,active: 3200 nM
13,O=c1c(CCc2ccccc2)nc2cnc(N3CCOCC3)nc2n1Cc1cccs1,inconclusive: 3.1 nM
14,O=C1NCN(c2ccccc2)C12CCN(CCCC(c1ccc(F)cc1)c1ccc(F)cc1)CC2,inactive
15,CC(C)c1cc(CN(C)C)c(O)c(C(C)(C)C)c1,inactive
16,Cn1nc(C(=O)Nc2cccnc2)c2ccccc2c1=O,active: 620 nM
17,COc1ccc(N2CCN(C(=O)CCN3C(=O)c4ccccc4S3(=O)=O)CC2)cc1,inactive
18,O=C1CC(Sc2nnnn2C2CCCCC2)C(=O)N1c1ccccc1 (stereo unspecified),inactive
19,Fc1ccccc1CCNc1nnnn1-c1ccccc1,inactive
20,COC(=O)c1ccccc1S(=O)(=O)N(CCCN1CCOCC1)Cc1cccs1,inconclusive: 1.6 nM
21,CCCn1c(SCC(=O)c2cc(OC)ccc2OC)nc2c1c(=O)n(C)c(=O)n2C,inconclusive: 6.2 nM
22,N#Cc1c(N)nc(SCC(=O)NCc2ccc3c(c2)OCO3)c(C#N)c1-c1cccs1,active: 170 nM
23,CCn1c(SCC(=O)c2ccccc2)nnc1-c1cc2cc(Br)ccc2o1,inconclusive: 5.8 nM

# Pulled by compound from the entries so far:
row,Compound,max dye-equivalent concentration
7,CCC(CC)C(=O)NCCc1cc2ccc(OC)cc2[nH]c1=O,inconclusive: 1.9 nM
10,Cc1ccsc1C1NC(=O)c2ccccc2N1 (stereo unspecified),active: 1200 nM

# Next structures.

row,Compound,max dye-equivalent concentration
1,COc1ccc2oc(=O)c(C(=O)N3CCN(c4ccccc4)CC3)cc2c1,active: 38 nM
2,COc1cc(OC)c(C2CC(=O)N3CN(c4ccccc4C)CSC3=C2C#N)cc1OC (stereo unspecified),inconclusive: 1.1 nM
3,CN1CCN(c2ncc3ncc(=O)n(Cc4cccs4)c3n2)CC1,inconclusive: 1.4 nM
4,CCCn1nc(NC(=O)c2ccncc2)c2cc3ccccc3nc21,inconclusive: 7.5 nM
5,Cc1cc(Cl)ccc1OCCCC(N)=O,inactive
6,CCOC(=O)c1cnn(-c2nc(CC)nc3sc4c(c23)CCC4)c1N,inconclusive: 2.4 nM
7,COc1ccccc1C(=O)NCCC(=O)N1CC(=O)Nc2ccccc21,inconclusive: 4.8 nM
8,CC(=O)NC(Cc1ccccc1C)C(=O)NC1CCN(c2c3c(nc4ncnn24)CCC3)CC1 (stereo unspecified),inactive
9,CCc1sc(C(=O)Nc2ccsc2C(=O)OC)cc1Br,inconclusive: 8 nM
10,CCCCn1c(SCC(=O)NCCc2ccc(OC)c(OC)c2)nc2c1c(=O)n(C)c(=O)n2C,inactive
11,Cc1sc(NC(=O)CN2CCN(c3ccccn3)CC2)c(C#N)c1C,inconclusive: 1.5 nM
12,Cc1cc2c(cc1C)NC(c1ccccn1)C1=C(CC(C)(C)CC1=O)N2 (stereo unspecified),inactive
13,O=C(COC(=O)c1ccccc1NC(=O)c1ccco1)Nc1ccc2c(c1)OCO2,inconclusive: 1.8 nM
14,Cc1cc(=O)oc2cc(NC(=O)C3COc4ccccc4O3)ccc12 (stereo unspecified),inconclusive: 9.1 nM
15,COC(=O)c1cn(C)c2ccc(S(=O)(=O)N3CCCCC3)cc2c1=O,inconclusive: 1.7 nM
16,CCN(CC)C(=O)CSc1nnc([C@@H](NC(=O)OC(C)(C)C)C(C)C)o1,inconclusive: 1.2 nM
17,COc1ccccc1-c1cc(C(=O)Nc2c(F)cc(F)cc2Br)no1,inactive
18,O=c1c(-c2cccs2)nc2cnc(N3CCOCC3)nc2n1-c1ccccc1,inconclusive: 4.1 nM
19,COn1c(=O)c(-c2ccc(Cl)cc2)[n+]([O-])c2ccccc21,active: 44 nM
20,CCn1c(SCc2nc(-c3ccc(OC)c(OC)c3)no2)nnc1-c1cccs1,inconclusive: 1.1 nM
21,O=c1cc(CN2CCc3ccccc32)nc2sccn12,inconclusive: 3.5 nM
22,COCC(=O)n1nc(-c2ccccc2)nc1NCc1ccc(F)cc1,inconclusive: 2.6 nM
